{"sequences": {"note": "Amino acid sequences for entries named in this document (tags omitted). A change or cut given only in a name is not applied to a line headed by its entry.", "UniProt Q64446": "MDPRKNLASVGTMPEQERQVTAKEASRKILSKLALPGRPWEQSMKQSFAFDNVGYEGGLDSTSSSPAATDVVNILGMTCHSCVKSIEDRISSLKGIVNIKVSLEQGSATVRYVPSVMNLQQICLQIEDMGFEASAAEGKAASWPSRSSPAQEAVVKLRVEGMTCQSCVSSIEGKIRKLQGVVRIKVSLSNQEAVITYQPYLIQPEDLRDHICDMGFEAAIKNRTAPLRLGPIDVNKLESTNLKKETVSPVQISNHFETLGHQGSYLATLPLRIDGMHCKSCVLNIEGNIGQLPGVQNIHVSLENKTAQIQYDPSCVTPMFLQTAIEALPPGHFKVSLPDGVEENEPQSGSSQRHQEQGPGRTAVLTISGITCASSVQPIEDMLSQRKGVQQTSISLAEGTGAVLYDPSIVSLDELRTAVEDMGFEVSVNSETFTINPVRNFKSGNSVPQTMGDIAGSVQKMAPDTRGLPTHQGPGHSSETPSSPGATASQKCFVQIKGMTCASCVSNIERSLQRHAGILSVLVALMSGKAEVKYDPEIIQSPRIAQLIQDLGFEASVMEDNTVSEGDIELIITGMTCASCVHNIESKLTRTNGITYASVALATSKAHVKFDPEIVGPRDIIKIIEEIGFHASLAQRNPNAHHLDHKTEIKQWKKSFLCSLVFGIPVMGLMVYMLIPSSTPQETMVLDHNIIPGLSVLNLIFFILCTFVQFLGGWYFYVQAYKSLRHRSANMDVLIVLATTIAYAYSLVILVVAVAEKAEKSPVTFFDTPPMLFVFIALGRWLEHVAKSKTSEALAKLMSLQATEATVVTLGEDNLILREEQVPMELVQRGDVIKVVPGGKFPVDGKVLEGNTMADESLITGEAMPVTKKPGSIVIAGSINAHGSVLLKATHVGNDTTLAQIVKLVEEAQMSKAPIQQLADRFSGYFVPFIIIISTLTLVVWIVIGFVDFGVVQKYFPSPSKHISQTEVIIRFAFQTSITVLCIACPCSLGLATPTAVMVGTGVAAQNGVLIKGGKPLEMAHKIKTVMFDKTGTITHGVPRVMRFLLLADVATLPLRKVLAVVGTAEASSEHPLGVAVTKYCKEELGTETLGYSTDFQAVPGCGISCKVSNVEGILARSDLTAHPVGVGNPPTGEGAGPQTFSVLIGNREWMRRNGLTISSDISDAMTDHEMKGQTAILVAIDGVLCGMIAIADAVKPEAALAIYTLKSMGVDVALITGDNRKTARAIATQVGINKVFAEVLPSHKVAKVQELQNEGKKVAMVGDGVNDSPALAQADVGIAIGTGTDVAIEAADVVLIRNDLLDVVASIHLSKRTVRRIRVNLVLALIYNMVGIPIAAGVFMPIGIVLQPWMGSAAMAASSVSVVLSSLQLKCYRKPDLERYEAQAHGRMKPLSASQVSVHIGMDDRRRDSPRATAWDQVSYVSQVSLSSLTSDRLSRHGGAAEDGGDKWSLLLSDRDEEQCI"}, "source": "paper PMC13092486", "binders": {"B1": {"name": "Antioxidant protein 1 (ATOX1) (protein, UniProt O08997 1-68)", "chain": "MPKHEFSVDMTCEGCAEAVSRVLNKLGGVEFNIDLPNKKVCIDSEHSSDTLLATLNKTGKAVSYLGPK"}}, "target": "transmembrane P1B ATPase (ATP7B) (mouse (endogenous in BV2)) (UniProt Q64446)", "assay": "co-IP; lysate of BV2 microglia cells treated with Aβ1-42; ATOX1 and ATP7B antibodies from Santacruz (sc-100557, sc-373963); which protein was precipitated not given", "note": "No constants are given. Whether binding was seen depends on the method and setting. Binding seen in cells or lysates may run through a third protein. Some results given as binding are weak or reduced against the parent protein; the word gives no strength.", "data": [{"binder": "B1", "values": [{"measurement": "binding", "value": "binds"}]}]}
